The text below walks through data of the supplement of paper PMC12578635.

± gives the standard deviation of the averaged measurements. This is one part of the list. Repeats are few or missing, and single values can be far off.

For this test, the system named is RAW 264.7 macrophages infected with S. aureus JE2-lux. As to the kind of experiment: host macrophage viability (CellTiter-Fluor) relative to DMSO vehicle; higher = more viable host cells. The settings on record: 10 µM; treatment time 4 h; gentamicin 50 µg/ml.
Consider `N#C/C(=C\c1c[nH]c2ccc(Br)cc12)C(=O)N1CCOCC1`, for which the host macrophage viability is 94.3%.
In the case of `Cn1c(=O)[nH]c(=O)c2[nH]c(CN(Cc3ccccc3)Cc3ccccc3)nc21`, the host macrophage viability amounted to 119%.
Regarding `COc1ccc(C2C3=C(CC(C)(C)CC3=O)Nc3nc(SC(C)C)[nH]c(=O)c32)cc1` (stereo not drawn), the host macrophage viability amounted to 128%.
As for `O=C(/C=C/c1ccccc1)NN1C(=O)c2ccccc2C1=O`, the host macrophage viability turned out to be 110%.
Turning to `O=C(CSc1nnc(-c2ccccc2)c(-c2ccccc2)n1)Nc1nccs1`, the host macrophage viability was 109%.
In the case of `CCOC(=O)c1[nH]c2ccccc2c1NC(=S)Nc1cccc(Cl)c1C`, the host macrophage viability was found to be 112%.
As for `CCOC(=O)Cc1csc(NC(=O)CSc2nc(=O)[nH]c3c2CCCC3)n1`, the host macrophage viability worked out at 105%.
Turning to `COc1cccc2sc(Nc3ccccc3)nc12`, the host macrophage viability amounted to 109 ± 8.2%.
With `O=C(c1noc2ccc(S(=O)(=O)N3CCC(Cc4ccccc4)CC3)cc12)N1CCCC1` the figure was 96.1%; with `O=C(CSc1nc(O)c2c(n1)CCC2)Nc1cccc2ccccc12`, 111%.
For `CCNc1nc(C(N)=O)c(NC(=O)c2cc(-c3ccc(OC)cc3)nc3ccccc23)s1` the value was 121%; for `N#C/C(=C\Nc1ccc2c(c1)OCO2)c1nc(-c2ccc([N+](=O)[O-])cc2)cs1`, 112 ± 12%.
With `Cn1c(=O)c(C(=O)NCCc2c[nH]c3ccccc23)cc2cccnc21` the figure was 103%.
Turning to `CCOC(=O)Cc1ccc(NC(=O)N2CCc3c(c(C(=O)N4CCCCC4)nn3C)C2)cc1`, the host macrophage viability was found to be 125%.
For `O=C(Cc1csc2nc(-c3ccc(F)cc3)cn12)NCc1ccc(F)cc1` the value was 113%; for `O=C(C1CCN(c2nccnc2Oc2ccccc2)CC1)N1CCN(c2cccc(Cl)c2)CC1`, 118%.
For `CCN(CC(O)Cn1c2ccccc2c2ccccc21)S(=O)(=O)c1ccc(F)cc1` (stereo not drawn) the value was 105%; for `COc1ccc(OC)c(S(=O)(=O)NCCc2sc(-c3ccc(F)cc3)nc2C)c1`, 117%; for `Cc1cc(C(=O)NC2CCCOC2)c2cccc(Cl)c2n1` (stereo not drawn), 106%.
Take `Cc1ccc(S(=O)(=O)Nc2ccccc2C(=O)Nc2c(C(N)=O)oc3ccccc23)cc1`: the host macrophage viability was 118 ± 14%.
Take `COc1ccc(Nc2ncnc3scc(-c4ccc(Cl)cc4)c23)c(OC)c1`: the host macrophage viability came out at 132%.
As for `O=C(Nc1ccc(SCc2nnc(-c3ccccc3)o2)cc1)C1CC1`, the host macrophage viability was found to be 121%.
With `Cc1c(-c2ccccc2)n[nH]c1C(=O)NC(c1ccccc1)c1ccnn1C` (stereo not drawn) the figure was 104%; with `Cc1nn(-c2nc3ccccc3[nH]2)c2c1C(c1ccc([N+](=O)[O-])s1)CC(=O)N2` (stereo not drawn), 117%; with `CCOC(=O)c1ccccc1NC(=O)CC1S/C(=N/C)N(C)C1=O` (stereo not drawn), 102%.
With `CCc1ccc2[nH]c3nc(SCC(=O)Nc4nnc(C(C)C)s4)nnc3c2c1` the figure was 109%.
For `COc1cccc(OC(=O)c2cc3c(-c4ccccc4F)nn(C)c3s2)c1`, the host macrophage viability amounted to 91.6%.
For `CC(C)N1C(=O)/C(=C2/C(=O)N(CC(N)=O)c3ccccc32)SC1=S` the value was 91%.
